Values from PubChem BioAssay AID1224826 (NIAID, 2016).

- Aim: 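Knock-downs that raise or lower Tnf reporter signal after endotoxin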 (primary screen)
- Cell system: RAW264.7 G9 macrophages from mouse bearing reporters for p65 (GFP) and the Tnf promoter (mCherry)
- Reagents: siRNA pool against mouse genes, 100 nM
- Time to read-out: 16 h of LPS stimulation, after 2 days of siRNA transfection
- Treatment: bacterial lipopolysaccharide (Salmonella minnesota R595), 10 ng/ml
- Measurement: 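Nuclear mCherry signal of the Tnf promoter reporter measured by imaging after background removal, scaled to each plate median and turned into robust z-scores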
- Direction: Tnf reporter robust z-score: higher = stronger Tnf promoter reporter signal after LPS
- Active means: 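a well counts as active at a score of -1.3 or below (Tlr4 knock-down control median) or above 3 (raised signal); controls and wells holding fewer than 50 cells are excluded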
- Calls: active = Tnf reporter clearly lowered or raised; inactive = no clear change in Tnf reporter
Here is a random part of about 17,000 reagents. Over the whole deposit, about 1,110 (6.6%) are marked active. 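Active means lowered or raised reporter signal; replicate intensities are raw and not normalised per plate.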 The numbers tell different reagents against one gene apart. Not all columns of the deposit are shown.

| target | reagent | Tnf reporter robust z-score | fewer than 50 cells in well | call |
| --- | --- | --- | --- | --- |
| Atrip | 1 | – | fewer than 50 cells per well; well left out of calls | inactive |
| Krtap6-1 | 1 | 0.5 | enough cells in well | inactive |
| Tlk1 | 1 | – | fewer than 50 cells per well; well left out of calls | inactive |
| Thnsl1 | 1 | 0.13 | enough cells in well | inactive |
| Heatr3 | 1 | -0.47 | enough cells in well | inactive |
| Or10q1 | 1 | -0.41 | enough cells in well | inactive |
| Krt31 | 1 | 0.08 | enough cells in well | inactive |
| Lamb2 | 1 | -0.69 | enough cells in well | inactive |
| Pigt | 1 | -1.01 | enough cells in well | inactive |
| Amz1 | 1 | -0.03 | enough cells in well | inactive |
| Or7e170 | 1 | -0.5 | enough cells in well | inactive |
| Vmn1r37 | 1 | 2.03 | enough cells in well | inactive |
| Nup98 | 1 | – | fewer than 50 cells per well; well left out of calls | inactive |
| Trpc6 | 1 | -0.69 | enough cells in well | inactive |
| Dgcr2 | 1 | 0.71 | enough cells in well | inactive |
| Usp14 | 1 | 0.29 | enough cells in well | inactive |
| Ubxn2b | 1 | – | fewer than 50 cells per well; well left out of calls | inactive |
| Shd | 1 | – | fewer than 50 cells per well; well left out of calls | inactive |
| Thoc7 | 1 | -1.15 | enough cells in well | inactive |
| Thoc7 | 2 | -0.73 | enough cells in well | inactive |
| Try4 | 1 | 3.15 | enough cells in well | active |
| P4hb | 1 | -0.91 | enough cells in well | inactive |
| Disp1 | 1 | -0.86 | enough cells in well | inactive |
| Rac3 | 1 | 0.1 | enough cells in well | inactive |
| Qrfpr | 1 | -0.02 | enough cells in well | inactive |
| Mas1 | 1 | -0.44 | enough cells in well | inactive |
| Kdelr3 | 1 | 0.14 | enough cells in well | inactive |
| Cdx1 | 1 | -0.68 | enough cells in well | inactive |
| Polr1d | 1 | -0.23 | enough cells in well | inactive |
| Plekhb1 | 1 | -0.34 | enough cells in well | inactive |
| Sult4a1 | 1 | -0.05 | enough cells in well | inactive |
| Ooep | 1 | -0.55 | enough cells in well | inactive |
| Arhgef2 | 1 | -0.06 | enough cells in well | inactive |
| Mageb1 | 1 | 1.19 | enough cells in well | inactive |
| Serpina12 | 1 | 0.16 | enough cells in well | inactive |
| Cog3 | 1 | -2.12 | enough cells in well | active |
| Zgpat | 1 | -0.44 | enough cells in well | inactive |
| Rtn2 | 1 | – | fewer than 50 cells per well; well left out of calls | inactive |
| Atp6v0d2 | 1 | 1.01 | enough cells in well | inactive |
| Thpo | 1 | 0.85 | enough cells in well | inactive |
| Olfm5 | 1 | -0.89 | enough cells in well | inactive |
| Gripap1 | 1 | 1.25 | enough cells in well | inactive |
| Cygb | 1 | -0.07 | enough cells in well | inactive |
| Sall1 | 1 | -0.16 | enough cells in well | inactive |
| Nucb2 | 1 | 0.62 | enough cells in well | inactive |
| Gtf3c1 | 1 | -1.02 | enough cells in well | inactive |
| Cyp3a11 | 1 | -0.48 | enough cells in well | inactive |
| Star | 1 | -0.39 | enough cells in well | inactive |
| Ptpn6 | 1 | -0.57 | enough cells in well | inactive |
| Atp6ap2 | 1 | -0.86 | enough cells in well | inactive |
| Ccdc43 | 1 | -0.23 | enough cells in well | inactive |
| Hspb2 | 1 | 0.08 | enough cells in well | inactive |
| Ube2a | 1 | – | fewer than 50 cells per well; well left out of calls | inactive |
| S100a8 | 1 | -0.29 | enough cells in well | inactive |
| Scn8a | 1 | -1 | enough cells in well | inactive |
| Cxcr6 | 1 | -0.24 | enough cells in well | inactive |
| Bysl | 1 | -0.49 | enough cells in well | inactive |
| P3h4 | 1 | -0.81 | enough cells in well | inactive |

2 entries from above, arranged by “Tnf reporter robust z-score”, ascending.
| target | reagent | Tnf reporter robust z-score | fewer than 50 cells in well | call |
| --- | --- | --- | --- | --- |
| Ptpn6 | 1 | -0.57 | enough cells in well | inactive |
| Star | 1 | -0.39 | enough cells in well | inactive |
